From PMC13615978
These are yes or no findings as the source states them, for the method shown. Some binding calls cover weakened binding; strength is not graded here. Sequences can lack the tags named with a protein.

Columns and labels:
[1] = target: Ent5 full-length tagged with mEGFP (Ent5-mEGFP) (S. cerevisiae) (UniProt Q03769); experiment: mass photometry; Ent5-mEGFP alone, 1 µM stock, 1-2 µL added to 18 µL buffer, room temperature; low salt (5 mM NaCl); self-association into species >200 kDa beside the monomer; both purified
[2] = target: Ent5 Δ249-287-mEGFP (S. cerevisiae) (UniProt Q03769); experiment: as above

B1: Ent5 full-length tagged with mEGFP (Ent5-mEGFP) (protein, UniProt Q03769 1-411)
chain: MDSLSKKIQNLGIHDIRNAARFAQNVIVQYEPYQIDIRRATNTDAWGPTPKHLAKVLRNRYQVPLYLMTEYTLKRLVDHIATRPKNLYEKARKDYVNYGSEWRVVLKCLVVIEFLLLNVDTGDELNQIRSCLLTHKHILTREIAQFKVKFSNDGKMEIHERGIRKKGELILQYLEDSQFLKKERAKNKKNALKIRQQGESSIYNANQISTSASYDNIDDDEFDADADGFDSEMDANNVTNFNVPVETEANSNTRRRSHMEEQRRQRREILREQIKNKEQQRKRKQQQDSIPDLIDLDDSTSTTNNITIDNGNNDNKNNNINSNSDDDDDEFGDFQSETSPDTTAPKTSNSKIDDLLDWDGPKSDTDTTAAAQTSLPFAEKKQQKARPQATKDKSKGNDAFSDLFSYSKSLV
[1]
  binding: binds weakly

B2: Ent5 Δ249-287-mEGFP (protein, UniProt Q03769)
chain: MDSLSKKIQNLGIHDIRNAARFAQNVIVQYEPYQIDIRRATNTDAWGPTPKHLAKVLRNRYQVPLYLMTEYTLKRLVDHIATRPKNLYEKARKDYVNYGSEWRVVLKCLVVIEFLLLNVDTGDELNQIRSCLLTHKHILTREIAQFKVKFSNDGKMEIHERGIRKKGELILQYLEDSQFLKKERAKNKKNALKIRQQGESSIYNANQISTSASYDNIDDDEFDADADGFDSEMDANNVTNFNVPVETEDSIPDLIDLDDSTSTTNNITIDNGNNDNKNNNINSNSDDDDDEFGDFQSETSPDTTAPKTSNSKIDDLLDWDGPKSDTDTTAAAQTSLPFAEKKQQKARPQATKDKSKGNDAFSDLFSYSKSLV
[2]
  binding: binds weakly
